Data on 5 molecules can be found in paper doi:10.1101/2024.06.20.599911 (bioRxiv, 2024).

Results are given in words; binding and its absence hold for the method and conditions named. For some assays here: In cells and extracts the contact can be indirect. Some entries that bind do so weakly or less than the wild type. For some assays here: Sequences can lack the tags named with a protein.

In test [1] the target is T1, S10-AtCNIH5 (Arabidopsis thaliana CORNICHON HOMOLOG 5 tagged with the 10th β-strand of GFP) (Arabidopsis thaliana) (UniProt Q9SZ74).
T1 sequence: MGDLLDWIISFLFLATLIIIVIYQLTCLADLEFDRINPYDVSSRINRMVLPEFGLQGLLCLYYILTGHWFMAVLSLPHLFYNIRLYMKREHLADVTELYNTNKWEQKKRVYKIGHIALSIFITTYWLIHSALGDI
The experiment in a line: split reporter.

Test [2] concerns the target T2, AtPHT1;1-S11 (PHOSPHATE TRANSPORTER 1;1 tagged with the 11th β-strand of sfGFP) (Arabidopsis thaliana) (UniProt Q8VYM2).
T2 sequence: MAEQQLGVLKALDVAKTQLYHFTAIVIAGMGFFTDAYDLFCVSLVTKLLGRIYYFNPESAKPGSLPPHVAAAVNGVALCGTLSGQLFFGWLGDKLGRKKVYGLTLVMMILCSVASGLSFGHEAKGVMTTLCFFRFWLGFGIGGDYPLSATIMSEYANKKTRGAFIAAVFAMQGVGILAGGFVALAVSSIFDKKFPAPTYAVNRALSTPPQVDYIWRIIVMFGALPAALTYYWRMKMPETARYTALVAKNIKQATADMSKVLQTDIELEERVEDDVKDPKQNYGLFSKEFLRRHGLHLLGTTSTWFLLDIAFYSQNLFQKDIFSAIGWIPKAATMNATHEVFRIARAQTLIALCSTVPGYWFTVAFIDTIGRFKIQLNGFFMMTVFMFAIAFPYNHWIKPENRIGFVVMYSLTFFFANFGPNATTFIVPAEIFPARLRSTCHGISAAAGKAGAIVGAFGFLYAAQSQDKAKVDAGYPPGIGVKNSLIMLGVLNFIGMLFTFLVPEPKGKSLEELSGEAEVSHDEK
The experiment in a line: split reporter.

For test [3], the target named is T3, PLVCub-AtCNIH5 (Arabidopsis thaliana) (UniProt Q9SZ74).
T3 sequence: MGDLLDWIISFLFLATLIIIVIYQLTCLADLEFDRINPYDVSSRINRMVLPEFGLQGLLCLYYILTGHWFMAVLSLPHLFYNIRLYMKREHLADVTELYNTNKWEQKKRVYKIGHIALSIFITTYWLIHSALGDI
The experiment in a line: two-hybrid.

B1: AtPHO2^C748A-S11 (catalytically defective PHOSPHATE2) (enzyme, UniProt Q8VY10 1-907)
chain: MEMSLTDSDWDSSSDSGSSEHEEVEFSYGGRAQNIFSNLEETIGKIDEFLSFERGFMYGDIVRSATEPSGQSGRVINIDMFVNLESTHGKIMKEVDTKRLQKLRSISLSDYVINGPWVGRVDKIVERVSVTLDDGTNYEVLVDGQDKLVAIPPNLLEDSQYSYYPGQRVQVKLAHAPRSTTWLCGTWRGTQVMGTVCTVEAGLVYVDWVASIVMEGDRNLTAPQALQNPESLTLLPCVSHASWQLGDWCILPGSSHCDIAERQTPNVAAYNLNECHKTFQKGFNRNMQNSGLDELFVITKTKMKVAVMWQDGSCSLGVDSQQLLPVGAVNAHDFWPEQFVVEKETCNSKKWGVVKAVNAKEQTVKVQWTIQVEKEATGCVDEVMEEIVSAYELLEHPDFGFCFSDVVVKLLPEGKFDPNADTIVATEAKHLLTESDYSGAYFLSSIGVVTGFKNGSVKVKWANGSTSKVAPCEIWKMERSEYSNSSTVSSEGSVQDLSQKISQSDEASSNHQETGLVKLYSVGESCNENIPECSSFFLPKAAIGFITNLASSLFGYQGSTSVISSHSRCNDSEDQSDSEVLVQETAESYDNSETNSGEVDMTTTMVNIPIEGKGINKTLDSTLLENSRNQVRFRQFDMVNDCSDHHFLSSDKGLAQSQVTKSWVKKVQQEWSNLEANLPNTIYVRVCEERMDLLRAALVGAPGTPYHDGLFFFDIMLPPQYPHEPPMVHYHSGGMRLNPNLYESGRVALSLLNTWSGSGTEVWNAGSSSILQLLLSFQALVLNEKPYFNEAGYDKQLGRAEGEKNSVSYNENAFLITCKSMISMLRKPPKHFEMLVKDHFTHRAQHVLAACKAYMEGVPVGSSANLQGNSTTNSTGFKIMLSKLYPKLLEAFSEIGVDCVQEIGPES
B1: in test [1], the binding entry is recorded as “no binding”.

B2: S10-AtCNIH5 (Arabidopsis thaliana CORNICHON HOMOLOG 5 tagged with the 10th β-strand of GFP) (protein, UniProt Q9SZ74 1-135)
chain: MGDLLDWIISFLFLATLIIIVIYQLTCLADLEFDRINPYDVSSRINRMVLPEFGLQGLLCLYYILTGHWFMAVLSLPHLFYNIRLYMKREHLADVTELYNTNKWEQKKRVYKIGHIALSIFITTYWLIHSALGDI
Regarding B2, in test [2], the binding entry is “binds”.

B3: NubG-AtPHT1;4 (protein, UniProt Q96303 1-534)
chain: MAREQLQVLNALDVAKTQWYHFTAIIIAGMGFFTDAYDLFCISLVTKLLGRIYYHVEGAQKPGTLPPNVAAAVNGVAFCGTLAGQLFFGWLGDKLGRKKVYGMTLMVMVLCSIASGLSFGHEPKAVMATLCFFRFWLGFGIGGDYPLSATIMSEYANKKTRGAFVSAVFAMQGFGIMAGGIFAIIISSAFEAKFPSPAYADDALGSTIPQADLVWRIILMAGAIPAAMTYYSRSKMPETARYTALVAKDAKQAASDMSKVLQVEIEPEQQKLEEISKEKSKAFGLFSKEFMSRHGLHLLGTTSTWFLLDIAFYSQNLFQKDIFSAIGWIPPAQSMNAIQEVFKIARAQTLIALCSTVPGYWFTVAFIDVIGRFAIQMMGFFFMTVFMFALAIPYNHWTHKENRIGFVIMYSLTFFFANFGPNATTFVVPAEIFPARFRSTCHGISAASGKLGAMVGAFGFLYLAQNPDKDKTDAGYPPGIGVRNSLIVLGVVNFLGILFTFLVPESKGKSLEEMSGENEDNENSNNDSRTVPIV
On to B3, for which, in test [3], the binding result is “binds”.

B4: endogenous AtPHF1 (natural protein, UniProt Q8GYE0 1-398, looked up)
chain: MEIEEASRESGHVVCGSWIRRPKKVNWVLIAKASKRRGSSVSSPALLNIFSFDPITASLSSSPLATHTLKDSDGDPVAVSVHPGGDYFVCSTSKGGCKLFELVGGATGITILAKELLPLQNAGLQKCMAFSFDGSKLAVGGVDGCLRIMEWPNLSVILDEPKAHKSIRDMDFSLDSEFLATTSTDGSARIWKAEDGFPLSTLERSGDENIELCRFSKDGTKPFLFCAAQRGDTPMVNVYDISTWKKLGFKKLSRKTASTMAVSLDGKYIALGGKDGDVSVAEVKTMEIYHYSKRLHLGQSIASLEFCPSERVMLTTSSEWGEMVTKLTVPKEWKEWQIYALLFCLFMASVIAAYVFFENSDSFWKLPMGKDQKRPKISLFGGSSSTPSEDHSRWNLDL
For B4, the binding entry in test [3] was “binds”.

B5: NubG-AtPHT1;1 (protein, UniProt Q8VYM2 1-524)
chain: MAEQQLGVLKALDVAKTQLYHFTAIVIAGMGFFTDAYDLFCVSLVTKLLGRIYYFNPESAKPGSLPPHVAAAVNGVALCGTLSGQLFFGWLGDKLGRKKVYGLTLVMMILCSVASGLSFGHEAKGVMTTLCFFRFWLGFGIGGDYPLSATIMSEYANKKTRGAFIAAVFAMQGVGILAGGFVALAVSSIFDKKFPAPTYAVNRALSTPPQVDYIWRIIVMFGALPAALTYYWRMKMPETARYTALVAKNIKQATADMSKVLQTDIELEERVEDDVKDPKQNYGLFSKEFLRRHGLHLLGTTSTWFLLDIAFYSQNLFQKDIFSAIGWIPKAATMNATHEVFRIARAQTLIALCSTVPGYWFTVAFIDTIGRFKIQLNGFFMMTVFMFAIAFPYNHWIKPENRIGFVVMYSLTFFFANFGPNATTFIVPAEIFPARLRSTCHGISAAAGKAGAIVGAFGFLYAAQSQDKAKVDAGYPPGIGVKNSLIMLGVLNFIGMLFTFLVPEPKGKSLEELSGEAEVSHDEK
With B5, the binding result in test [3] is “binds”.
